Measurements reported in PubChem BioAssay AID504764 (Drosophila RNAi Screening Center, 2011)
The deposit covers about 22,000 reagents; shown is a random part of those that have a named target and a result. In the full data, 403 (1.9%) are marked active. 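Unnormalised raw counts per well; ratio z-scores behind the hit calls and whether each hit raises or lowers signal are not deposited.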 Not stated in the record: the amount of reagent.

Test: 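Genes whose knock-down alters Notch-dependent transcription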 (primary screen)
Cell system: Drosophila Kc167 cells
Knock-down reagent: long dsRNA against Drosophila genes
Timing: about 5 days (4 days dsRNA, then 24 h after transfection)
Treatment: transfection of constitutively active membrane-tethered Notch lacking the extracellular domain, read 24 h later
Read-out: 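Light from a Notch-responsive E(spl)m3 luciferase reporter under active Notch, with control-promoter and no-Notch reporter wells to normalise; raw counts from paired wells a and b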
Direction: induced reporter light, run 1, well a and induced reporter light, run 1, well b: higher = more light from the Notch target reporter with active Notch; control promoter light, run 1, well a and control promoter light, run 1, well b: higher = more light from the viral control promoter (cell number, transfection, viability); uninduced reporter light, run 1, well a: higher = more light from the Notch target reporter without active Notch
Rule for the call: 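Wells with low control signal or poorly matching duplicates excluded; duplicates averaged; per source plate, z beyond ±2 for induced/control log2 ratio or beyond ±1.8 for induced/uninduced marks a hit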
Calls: active = modifier hit (raised or lowered Notch signal); inactive = not a hit

{"target gene": "fau", "amplicon": "DRSC12816", "induced reporter light, run 1, well a": 1.46e5, "induced reporter light, run 1, well b": 1.45e5, "control promoter light, run 1, well a": 1.59e5, "control promoter light, run 1, well b": 1.34e5, "uninduced reporter light, run 1, well a": 13715, "activity call": "inactive"}
{"target gene": "fau", "amplicon": "DRSC12817", "induced reporter light, run 1, well a": 1.19e5, "induced reporter light, run 1, well b": 1.12e5, "control promoter light, run 1, well a": 1.43e5, "control promoter light, run 1, well b": 1.27e5, "uninduced reporter light, run 1, well a": 10435, "activity call": "inactive"}
{"target gene": "fau", "amplicon": "DRSC16943", "induced reporter light, run 1, well a": 1.53e5, "induced reporter light, run 1, well b": 1.41e5, "control promoter light, run 1, well a": 95450, "control promoter light, run 1, well b": 94770, "uninduced reporter light, run 1, well a": 10910, "activity call": "inactive"}
{"target gene": "fau", "amplicon": "DRSC16944", "induced reporter light, run 1, well a": 1.18e5, "induced reporter light, run 1, well b": 1.31e5, "control promoter light, run 1, well a": 1.37e5, "control promoter light, run 1, well b": 1.09e5, "uninduced reporter light, run 1, well a": 7980, "activity call": "inactive"}
{"target gene": "fau", "amplicon": "DRSC16945", "induced reporter light, run 1, well a": 64025, "induced reporter light, run 1, well b": 70310, "control promoter light, run 1, well a": 63255, "control promoter light, run 1, well b": 56210, "uninduced reporter light, run 1, well a": 6055, "activity call": "inactive"}
{"target gene": "yellow-g2", "amplicon": "DRSC08338", "induced reporter light, run 1, well a": 1.23e5, "induced reporter light, run 1, well b": 91755, "control promoter light, run 1, well a": 1.51e5, "control promoter light, run 1, well b": 1.47e5, "uninduced reporter light, run 1, well a": 6125, "activity call": "inactive"}
{"target gene": "CG17841", "amplicon": "DRSC17737", "induced reporter light, run 1, well a": 1.81e5, "induced reporter light, run 1, well b": 1.55e5, "control promoter light, run 1, well a": 2.09e5, "control promoter light, run 1, well b": 1.99e5, "uninduced reporter light, run 1, well a": 19035, "activity call": "inactive"}
{"target gene": "CG14710", "amplicon": "DRSC14933", "induced reporter light, run 1, well a": 1.22e5, "induced reporter light, run 1, well b": 1.16e5, "control promoter light, run 1, well a": 76590, "control promoter light, run 1, well b": 62745, "uninduced reporter light, run 1, well a": 7815, "activity call": "inactive"}
{"target gene": "CG42269", "amplicon": "DRSC10670", "induced reporter light, run 1, well a": 1.36e5, "induced reporter light, run 1, well b": 1.38e5, "control promoter light, run 1, well a": 1.49e5, "control promoter light, run 1, well b": 1.56e5, "uninduced reporter light, run 1, well a": 5985, "activity call": "inactive"}
{"target gene": "CG42269", "amplicon": "DRSC10672", "induced reporter light, run 1, well a": 1.69e5, "induced reporter light, run 1, well b": 1.54e5, "control promoter light, run 1, well a": 1.63e5, "control promoter light, run 1, well b": 1.58e5, "uninduced reporter light, run 1, well a": 6600, "activity call": "inactive"}
{"target gene": "babo", "amplicon": "DRSC07581", "induced reporter light, run 1, well a": 2.09e5, "induced reporter light, run 1, well b": 1.93e5, "control promoter light, run 1, well a": 2.21e5, "control promoter light, run 1, well b": 2.51e5, "uninduced reporter light, run 1, well a": 17910, "activity call": "inactive"}
{"target gene": "CG33752", "amplicon": "DRSC05351", "induced reporter light, run 1, well a": 2.45e5, "induced reporter light, run 1, well b": 2.12e5, "control promoter light, run 1, well a": 2.37e5, "control promoter light, run 1, well b": 3.90e5, "uninduced reporter light, run 1, well a": 17270, "activity call": "inactive"}
{"target gene": "CG11333", "amplicon": "DRSC14301", "induced reporter light, run 1, well a": 1.28e5, "induced reporter light, run 1, well b": 1.40e5, "control promoter light, run 1, well a": 2.22e5, "control promoter light, run 1, well b": 2.27e5, "uninduced reporter light, run 1, well a": 11790, "activity call": "inactive"}
{"target gene": "shi", "amplicon": "DRSC20373", "induced reporter light, run 1, well a": 1.12e5, "induced reporter light, run 1, well b": 1.02e5, "control promoter light, run 1, well a": 1.68e5, "control promoter light, run 1, well b": 1.87e5, "uninduced reporter light, run 1, well a": 7885, "activity call": "inactive"}
{"target gene": "CG18853", "amplicon": "DRSC06795", "induced reporter light, run 1, well a": 2.04e5, "induced reporter light, run 1, well b": 1.76e5, "control promoter light, run 1, well a": 2.59e5, "control promoter light, run 1, well b": 2.98e5, "uninduced reporter light, run 1, well a": 18415, "activity call": "inactive"}
{"target gene": "Tsp42Eq", "amplicon": "DRSC06180", "induced reporter light, run 1, well a": 2.27e5, "induced reporter light, run 1, well b": 2.19e5, "control promoter light, run 1, well a": 3.53e5, "control promoter light, run 1, well b": 2.61e5, "uninduced reporter light, run 1, well a": 19485, "activity call": "inactive"}
{"target gene": "bdg", "amplicon": "DRSC07136", "induced reporter light, run 1, well a": 1.44e5, "induced reporter light, run 1, well b": 1.22e5, "control promoter light, run 1, well a": 2.56e5, "control promoter light, run 1, well b": 2.21e5, "uninduced reporter light, run 1, well a": 10925, "activity call": "inactive"}
{"target gene": "zuc", "amplicon": "DRSC02160", "induced reporter light, run 1, well a": 1.93e5, "induced reporter light, run 1, well b": 2.51e5, "control promoter light, run 1, well a": 1.77e5, "control promoter light, run 1, well b": 1.84e5, "uninduced reporter light, run 1, well a": 15615, "activity call": "inactive"}

Sorted by “induced reporter light, run 1, well b” (ascending): 3 of the entries above.
{"target gene": "yellow-g2", "amplicon": "DRSC08338", "induced reporter light, run 1, well a": 1.23e5, "induced reporter light, run 1, well b": 91755, "control promoter light, run 1, well a": 1.51e5, "control promoter light, run 1, well b": 1.47e5, "uninduced reporter light, run 1, well a": 6125, "activity call": "inactive"}
{"target gene": "CG14710", "amplicon": "DRSC14933", "induced reporter light, run 1, well a": 1.22e5, "induced reporter light, run 1, well b": 1.16e5, "control promoter light, run 1, well a": 76590, "control promoter light, run 1, well b": 62745, "uninduced reporter light, run 1, well a": 7815, "activity call": "inactive"}
{"target gene": "CG17841", "amplicon": "DRSC17737", "induced reporter light, run 1, well a": 1.81e5, "induced reporter light, run 1, well b": 1.55e5, "control promoter light, run 1, well a": 2.09e5, "control promoter light, run 1, well b": 1.99e5, "uninduced reporter light, run 1, well a": 19035, "activity call": "inactive"}
